Laboratory results: patent publication US11298402B2, “Lysosomal degradation of lipids and proteins and method of use thereof” (University of Ottawa, priority 2015, dated 2022)
At least one compound was matched to its structure with a doubt left.

How the values were obtained:
[1] = system: McA-RH7777 cells (A18-C3); assay: Live imaging of lysosomal motility and lysosome-CLD interaction (kiss-and-run); format: cell-based, rat; conditions: for lysosomal motility and direct lysosomal interaction with CLD: fatty acid added to lipid-laden cells, live imaging
Protocol: In certain non-limiting examples described herein, McA-RH7777 cells stably expressing human apoB-100 and human apoC-III (designated A18-C3) were used for the studies. […] In addition, these studies, particularly those concerning EPA- or DHA-triggered lysosomal motility and CLD degradation, were also performed using primary rat hepatocytes. Transfection of plasmids encoding proteins of interest, or transfection of siRNA specific for silencing target gene expression, was achieved using the FuGENE HP Extreme reagent (Roche). Representative gene silencing siRNA sequences, which are not meant to be limiting, are described in Table 1, and plasmids encoding proteins of interest are described in Table 2. The effectiveness of siRNA silencing was verified by Western-blotting of cellular content of the target proteins, and by intracellular localization assay using siRNA-Tracker (Mirus Bioscience). Twenty-four h after plasmid transfection, or 48 h after siRNA transfection, the cells were cultured in lipid-rich media containing fetal bovine serum (20%) and OA (0.4 mM). The lipid-laden cells were switched to fresh media supplemented with OA or EPA (0.4 mM). In live imaging experiments, LipidTOX Red (Life Technologies) and LysoTracker (Life Technologies) were added to media prior to EPA treatment, to visualize lipid droplets and lysosomes, respectively. For visualizing peroxisomes, Peroxisome-GFP (Invitrogen) was introduced to the cells 24 h prior to experiments. Quantification of cell lipid contents was achieved either by direct mass measurement (HPTLC) and counting the number of lipid droplets using Image J Lipid Droplet Counter Plug-In, or indirectly by Western blot analysis of cellular content of ADRP. Secretion of apoB and TG-rich lipoprotein was determined by Western blot analysis and metabolic labeling. Mitochondrial β-oxidation was measured using MitoSOX Red (Life Technologies) in situ. Autophagic flux was determined by using Cyto-ID assay (Enzo Life Science) and by monitoring GFP-LC3 clustering in situ. Interaction of Arl8b and subunits of the HOPS complex was determined in situ by the proximity ligation assay (Olink Biosience). Cytoplasmic pH was measured using the cytosolic pHrodo indicator reagent (Invitrogen). Live imaging of fluorescent-tagged proteins was performed 1 h post-EPA treatment. Cells were also collected at the time of EPA treatment for transmission EM and tomography, as well as immuno-EM. For movies, cells were imaged at 60 sec intervals every 5 min, for a total of 30 min.
Cells were grown on 35-mm glass bottom dishes (Ibidi GmbH München, Germany) for 16 h in DMEM supplemented with FBS (20%) and OA (0.4 mM). Cells were imaged using a Zeiss 510 META laser scanning confocal microscope with a heated CO2-controlled stage (5% CO2 at 37° C.). Images were captured at a frame-rate of 30 frame/sec using a 63×. N.A.1.4 objective. Recommended laser lines and filter combinations were used for each dye. For visualization of lipid droplets, lysosomes, mitochondria, and mitochondrial β-oxidation, the respective reagents LipidTOX Red (Invitrogen), LysoTracker (Life Technology), MitoTracker (Life Technology), MitoSox Red (Invitrogen), and Peroxisome-GFP BacMam2.0 (Invitrogen) were introduced into the cells, according to manufacturers' recommendations, prior to EPA treatment.
Cells were cultured with lipid-rich media containing OA (0.4 mM) for 16 h. The lipid-laden cells were switched to fresh media containing EPA (0.4 mM) for 1 h, and the lysosomal movement towards lipid droplets was recorded by time-lapse microscopy. Fluorescent intensity of lysosomal signals at the periphery of selected individual lipid droplet was measured using Image J Live Intensity Profiler Plug-in^31-33 over a period of 40 sec. Quantification for each condition was carried out for 60 individual lipid droplets from three independent experiments. Constant threshold was applied to all of the images in each experiment.

[2] = system: McA-RH7777 cells (A18-C3); assay: Autophagic flux (Cyto-ID assay); format: cell-based, rat; conditions: lipid-laden cells, 1 h
Protocol: (§1) In certain non-limiting examples described herein, McA-RH7777 cells stably expressing human apoB-100 and human apoC-III (designated A18-C3) were used for the studies. […] In addition, these studies, particularly those concerning EPA- or DHA-triggered lysosomal motility and CLD degradation, were also performed using primary rat hepatocytes. Transfection of plasmids encoding proteins of interest, or transfection of siRNA specific for silencing target gene expression, was achieved using the FuGENE HP Extreme reagent (Roche). […] Quantification of cell lipid contents was achieved either by direct mass measurement (HPTLC) and counting the number of lipid droplets using Image J Lipid Droplet Counter Plug-In, or indirectly by Western blot analysis of cellular content of ADRP. Secretion of apoB and TG-rich lipoprotein was determined by Western blot analysis and metabolic labeling. Mitochondrial β-oxidation was measured using MitoSOX Red (Life Technologies) in situ. Autophagic flux was determined by using Cyto-ID assay (Enzo Life Science) and by monitoring GFP-LC3 clustering in situ. Interaction of Arl8b and subunits of the HOPS complex was determined in situ by the proximity ligation assay (Olink Biosience). Cytoplasmic pH was measured using the cytosolic pHrodo indicator reagent (Invitrogen). […]

[3] = system: McA-RH7777 cells (A18-C3); assay: Measurement of cytosolic pH (pHrodo); format: cell-based, rat; conditions: OA or EPA treatment
Protocol: as §1

hepatic cells = assay: Hepatic glucose uptake (fluorescent 2-NBDG assay); format: cell-based; conditions: fatty acid alone, without overexpression of Arl8b
[4] = system: McA-RH7777 cells (A18-C3); assay: Mitochondrial β-oxidation in situ (MitoSOX Red); format: cell-based, rat; conditions: EPA-treated cells
[5] = system: McA-RH7777 cells (A18-C3); assay: Secretion of VLDL-associated TG and apoB-100 (metabolic labeling, Western blot); format: cell-based, rat; conditions: EPA treatment compared to OA-treated cells
[6] = system: McA-RH7777 cells stably expressing human apoB-100 and human apoC-III (A18-C3); format: cell-based
Protocol: as §1

| SMILES | duration of lysosome-CLD interaction ([1]; EPA-treated cells) | peak intensity of lysosomal movement post EPA addition ([1]; EPA-treated cells) [h] | start of bidirectional motility of lysosomes after EPA addition ([1]; EPA-treated cells) | pattern of peroxisomal movement ([1]; Peroxisome-GFP expressing cells) | lysosomal motility and direct lysosomal interaction with CLD [1] | macroautophagic flux [2] | cytoplasmic pH [3] | hepatic uptake of glucose (hepatic cells) | β-oxidation [4] | secretion of VLDL-associated TG [5] | secretion of VLDL-associated apoB-100 [5] | lysosome-dependent lipid degradation ([6]; hepatocytes, DHA 6 h) | effect on EPA-induced lipid degradation (CLD turnover) ([6]; cells silenced, transfected or pre-treated, then EPA 0.4 mM, 6 h) | effect on EPA-triggered lysosomal motility / lysosomal interaction with CLD ([1]; cells silenced, transfected or pre-treated (15 min) before EPA) |
| --- | --- | --- | --- | --- | --- | --- | --- | --- | --- | --- | --- | --- | --- | --- |
| CC/C=C\C/C=C\C/C=C\C/C=C\C/C=C\CCCC(=O)O [EPA, eicosapentaenoic acid] | approximately 10 seconds | 1 to 2 | approximately 15 min | does not alter the pattern of peroxisomal movement | higher rate of lysosomal direct interaction with lipid droplets compared to controls | no higher than that in OA-treated cells | acidification of cytoplasm | increased | enhanced β-oxidation | suppressed | suppressed | – | – | – |
| CC/C=C\C/C=C\C/C=C\C/C=C\C/C=C\C/C=C\CCC(=O)O [DHA, docosahexaenoic acid, reference compound] | – | – | – | – | Robust lysosomal motility and direct interaction with CLDs | – | – | – | – | – | – | can induce lysosome-dependent lipid degradation | – | – |
| CO[C@H]1C[C@@H]2CC[C@@H](C)[C@@](O)(O2)C(=O)C(=O)N2CCCC[C@H]2C(=O)O[C@H]([C@H](C)C[C@@H]2CC[C@@H](O)[C@H](OC)C2)CC(=O)[C@H](C)/C=C(\C)[C@@H](O)[C@@H](OC)C(=O)[C@H](C)C[C@H](C)/C=C/C=C/C=C/1C [rapamycin] | – | – | – | – | – | increased macroautophagic flux | – | – | – | – | – | – | effectively block | effectively block EPA-triggered lysosomal motility |
